Patent US20160159861A1, “APJ Receptor Compounds” (priority 2013, published 2016)
Some of these results come from one statement about several compounds together. Peptide text beside a SMILES is read from it.

Target: T1, human APJ receptor (hAPJ) (Homo sapiens, UniProt P35414)
T1 construct: expressed in transfected cells
T1 sequence (P35414 1-380): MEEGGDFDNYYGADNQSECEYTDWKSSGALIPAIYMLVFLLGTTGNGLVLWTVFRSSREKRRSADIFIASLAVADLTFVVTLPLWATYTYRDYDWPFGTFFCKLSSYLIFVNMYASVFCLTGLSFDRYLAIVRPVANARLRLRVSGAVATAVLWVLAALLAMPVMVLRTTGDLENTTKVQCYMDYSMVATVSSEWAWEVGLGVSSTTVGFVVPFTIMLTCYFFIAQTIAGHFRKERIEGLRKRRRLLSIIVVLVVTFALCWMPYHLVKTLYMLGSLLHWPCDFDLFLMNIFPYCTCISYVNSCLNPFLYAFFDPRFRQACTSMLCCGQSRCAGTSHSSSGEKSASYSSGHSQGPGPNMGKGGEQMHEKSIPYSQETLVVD
Test: HTRF cAMP assay: inhibition of NKH477-stimulated cAMP in HEK cells stably expressing hAPJ
Format: cell-based
Details: read-out: EC50 (hAPJ), inhibition of cAMP production, bound stated; HTRF cAMP Assay, per data of Table 6
Description: HTRF cAMP Assay and IP-One Assay (Cisbio)
HTRF (homogeneous time resolved fluorescence) is a technology developed by Cisbio Bioassays based on TR-FRET (time-resolved fluorescence resonance energy transfer). Cisbio Bioassays has developed a wide selection of HTRF-based assays compatible with whole cells, thereby enabling functional assays to run under more physiological conditions. The IP-One assays are competitive immunoassays using cryptate-labeled anti-IP1 monoclonal antibody and d2-labeled IP1. IP1 is a relatively stable downstream metabolite of IP3, and accumulates in cells following Gq receptor activation.
cAMP kits based on a competitive immunoassay using cryptate-labeled anti-cAMP antibody and d2-labeled cAMP were used to assay the effects of APJ compounds of the present invention. […] Cells are treated with 1 nG/mL doxycycline and seeded in all white 96 well plates @40 k/well overnight.

## CCCCCCCCCCCCCCCC(=O)N1CCC[C@H]1C(=O)N[C@H](C(=O)N[C@H](C(=O)N[C@@H](Cc1ccccc1)C(=O)N[C@@H](CCCNC(=N)N)C(=O)N[C@@H](CO)C(=O)N1CCC[C@H]1C(=O)N[C@@H](CO)C(=O)N[C@@H](CCC(=O)O)C(=O)N[C@H](CCCCN)C(=O)N[C@@H](CCCNC(=N)N)C(=O)N[C@@H](CCCNC(=N)N)C(=O)N[C@@H](CO)C(=O)N[C@@H](C)C(=O)N[C@@H](CC(=O)O)C(=O)N[C@H](C(=O)N[C@@H](Cc1ccccc1)C(=O)N[C@H](C(N)=O)[C@@H](C)CC)[C@@H](C)CC)C(C)C)[C@@H](C)O [Compound 3] (HELM PEPTIDE1{[CCCCCCCCCCCCCCCC(=O)[*:2]].P.T.V.F.R.S.P.S.E.[dK].R.R.S.A.D.I.F.I.[am]}$$$$V2.0)
  EC50: ≤ 50 nM
